# Source: PubChem BioAssay AID1159578 (Peter MacCallum Cancer Centre, 2015)
# Test: 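siRNA pools altering how lymphatic endothelial cells close a scratch wound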 (primary screen)
# Cell system: human lymphatic endothelial cells
# Knock-down reagent: siRNA pool against human genes, 40 nM
# Duration: 48 h after transfection
# Detection: 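Cells stained with dye and imaged after a scratch; covered wound area and nuclei counted, duplicates averaged, migration set against mock wells and turned into a robust z-score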
# Scale: migration robust z-score: higher = faster migration into the scratch; nuclei per well: higher = more cells in the well
# Call rule: 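Migration changed when robust z exceeds 2 or falls below -2 and mean nuclei number is at least 3300; otherwise not called changed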
# Calls: active = migration changed; inactive = no migration change, or too few cells
# The whole screen tested about 18,000 reagents; shown is a random part of them. Over the whole deposit, about 1,030 (5.7%) were called active. 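Inactive calls also include pools with fewer than 3300 nuclei, whose migration was not assessed.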 The raw values are shown without normalisation. Unmarked entries are inactive. Further read-outs or replicates are left out here.
Gene,migration robust z-score,migration class with cell-count check,"nuclei per well, duplicate mean"
ZNF22 (zinc finger protein 22),1.94,migration z between -2 and 2; enough cells,6507
APOD (apolipoprotein D),0.42,migration z between -2 and 2; enough cells,6289
NFIC (nuclear factor I C),1.2,migration z between -2 and 2; enough cells,5768
TMEM177 (transmembrane protein 177),-2.06,under 3300 nuclei; migration not judged,3003
FAM151A (family with sequence similarity 151 member A),0,migration z between -2 and 2; enough cells,4552
RPS4Y2 (ribosomal protein S4 Y-linked 2),0.17,migration z between -2 and 2; enough cells,6340
HACD1 (3-hydroxyacyl-CoA dehydratase 1),-1.58,migration z between -2 and 2; enough cells,4977
ADGRG7 (adhesion G protein-coupled receptor G7),-0.5,migration z between -2 and 2; enough cells,5166
NEK11 (NIMA related kinase 11),-0.39,migration z between -2 and 2; enough cells,5840
ATP10B (ATPase phospholipid transporting 10B (putative)),0,migration z between -2 and 2; enough cells,5648
AKR1C8 (aldo-keto reductase family 1 member C8),-0.45,migration z between -2 and 2; enough cells,5752
GPS2 (G protein pathway suppressor 2),-0.47,migration z between -2 and 2; enough cells,6219
SLC6A16,-0.68,migration z between -2 and 2; enough cells,6092
DNAAF8 (dynein axonemal assembly factor 8),1.14,migration z between -2 and 2; enough cells,5772
GPLD1 (glycosylphosphatidylinositol specific phospholipase D1),0.06,migration z between -2 and 2; enough cells,6066
LAMC3 (laminin subunit gamma 3),0.28,migration z between -2 and 2; enough cells,5490
P2RX3 (purinergic receptor P2X 3),-0.21,migration z between -2 and 2; enough cells,5061
"BCAR3 (BCAR3 adaptor protein, NSP family member)",-0.22,migration z between -2 and 2; enough cells,5642
SORBS1 (sorbin and SH3 domain containing 1),0.98,migration z between -2 and 2; enough cells,5378

Continued; the last 7 above are carried over.
Gene,migration robust z-score,migration class with cell-count check,"nuclei per well, duplicate mean"
SLC6A16,-0.68,migration z between -2 and 2; enough cells,6092
DNAAF8 (dynein axonemal assembly factor 8),1.14,migration z between -2 and 2; enough cells,5772
GPLD1 (glycosylphosphatidylinositol specific phospholipase D1),0.06,migration z between -2 and 2; enough cells,6066
LAMC3 (laminin subunit gamma 3),0.28,migration z between -2 and 2; enough cells,5490
P2RX3 (purinergic receptor P2X 3),-0.21,migration z between -2 and 2; enough cells,5061
"BCAR3 (BCAR3 adaptor protein, NSP family member)",-0.22,migration z between -2 and 2; enough cells,5642
SORBS1 (sorbin and SH3 domain containing 1),0.98,migration z between -2 and 2; enough cells,5378
"ST6GALNAC1 (ST6 N-acetylgalactosaminide alpha-2,6-sialyltransferase 1)",1.06,migration z between -2 and 2; enough cells,5827
GNGT2 (G protein subunit gamma transducin 2),-0.81,migration z between -2 and 2; enough cells,7320
ARPC1B (actin related protein 2/3 complex subunit 1B),-0.16,migration z between -2 and 2; enough cells,4685
AKR1E2 (aldo-keto reductase family 1 member E2),0.44,migration z between -2 and 2; enough cells,4886
TMED2 (transmembrane p24 trafficking protein 2),1.69,migration z between -2 and 2; enough cells,7010
GAS1 (growth arrest specific 1),0.87,migration z between -2 and 2; enough cells,4976
SIX1 (SIX homeobox 1),2.64 (active),migration z above 2; enough cells,7304
KCNK7 (potassium two pore domain channel subfamily K member 7),-1.04,migration z between -2 and 2; enough cells,6328
GJD3 (gap junction protein delta 3),0.56,migration z between -2 and 2; enough cells,6088
CLCNKA (chloride voltage-gated channel Ka),0.57,migration z between -2 and 2; enough cells,5970
MED27 (mediator complex subunit 27),-2.16 (active),migration z below -2; enough cells,4210
RNASE13 (ribonuclease A family member 13 (inactive)),-0.92,migration z between -2 and 2; enough cells,5616
PCNT (pericentrin),-0.87,migration z between -2 and 2; enough cells,3972
FSTL4 (follistatin like 4),-0.64,migration z between -2 and 2; enough cells,5777
MATCAP1 (microtubule associated tyrosine carboxypeptidase 1),0.52,migration z between -2 and 2; enough cells,5772
HOPX (HOP homeobox),-0.24,migration z between -2 and 2; enough cells,4853
NKAIN3 (sodium/potassium transporting ATPase interacting 3),-0.9,migration z between -2 and 2; enough cells,3912
P2RY4 (pyrimidinergic receptor P2Y4),-0.6,migration z between -2 and 2; enough cells,5036
ADSL (adenylosuccinate lyase),-0.18,migration z between -2 and 2; enough cells,6824
FAF2 (Fas associated factor family member 2),0.72,migration z between -2 and 2; enough cells,6772
PSRC1 (proline and serine rich coiled-coil 1),0.19,migration z between -2 and 2; enough cells,6014
WWC1 (WW and C2 domain containing 1),0.88,migration z between -2 and 2; enough cells,5886
FAXDC2 (fatty acid hydroxylase domain containing 2),0.52,migration z between -2 and 2; enough cells,5584
RPS4X (ribosomal protein S4 X-linked),-1.1,migration z between -2 and 2; enough cells,5096
ZNF227 (zinc finger protein 227),0.18,migration z between -2 and 2; enough cells,5319
ROPN1L (rhophilin associated tail protein 1 like),-1.25,migration z between -2 and 2; enough cells,5416
ANKRD26 (ankyrin repeat domain 26),-0.02,migration z between -2 and 2; enough cells,6367
DPPA5 (developmental pluripotency associated 5),0.65,migration z between -2 and 2; enough cells,6390
TIMM17B (translocase of inner mitochondrial membrane 17B),0.5,migration z between -2 and 2; enough cells,5244
COPB1 (coat protein complex I subunit beta 1),-4.87,under 3300 nuclei; migration not judged,1886
HMGN5 (high mobility group nucleosome binding domain 5),0.16,migration z between -2 and 2; enough cells,5430
CYBC1 (cytochrome b-245 chaperone 1),0.38,migration z between -2 and 2; enough cells,7486
MRPL27 (mitochondrial ribosomal protein L27),0.25,migration z between -2 and 2; enough cells,5885
NUMA1 (nuclear mitotic apparatus protein 1),-2.59,under 3300 nuclei; migration not judged,2360
MT1F (metallothionein 1F),1.02,migration z between -2 and 2; enough cells,5679
DNAJB4 (DnaJ heat shock protein family (Hsp40) member B4),-0.37,migration z between -2 and 2; enough cells,7330
PHETA1 (PH domain containing endocytic trafficking adaptor 1),2.08 (active),migration z above 2; enough cells,6918
GP2 (glycoprotein 2),-1.83,migration z between -2 and 2; enough cells,5398
